These results are taken from paper PMC10011449.

Amino acid sequences for entries named in this document (tags omitted).
UniProt P31977: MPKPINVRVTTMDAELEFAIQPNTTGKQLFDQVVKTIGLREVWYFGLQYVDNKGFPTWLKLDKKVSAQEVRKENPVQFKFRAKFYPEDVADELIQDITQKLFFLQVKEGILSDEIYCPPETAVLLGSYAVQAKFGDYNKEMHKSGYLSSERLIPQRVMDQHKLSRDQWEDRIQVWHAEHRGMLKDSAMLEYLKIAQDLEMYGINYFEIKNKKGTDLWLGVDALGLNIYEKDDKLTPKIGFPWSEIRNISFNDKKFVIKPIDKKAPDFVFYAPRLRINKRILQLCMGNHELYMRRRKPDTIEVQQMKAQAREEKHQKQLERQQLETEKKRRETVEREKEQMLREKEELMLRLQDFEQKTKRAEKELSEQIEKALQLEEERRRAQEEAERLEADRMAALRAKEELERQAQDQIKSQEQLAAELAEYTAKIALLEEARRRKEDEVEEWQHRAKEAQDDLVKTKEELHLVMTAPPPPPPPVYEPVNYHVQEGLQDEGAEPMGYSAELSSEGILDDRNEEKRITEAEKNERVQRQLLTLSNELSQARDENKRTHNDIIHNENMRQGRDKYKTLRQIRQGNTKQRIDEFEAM
UniProt P19634: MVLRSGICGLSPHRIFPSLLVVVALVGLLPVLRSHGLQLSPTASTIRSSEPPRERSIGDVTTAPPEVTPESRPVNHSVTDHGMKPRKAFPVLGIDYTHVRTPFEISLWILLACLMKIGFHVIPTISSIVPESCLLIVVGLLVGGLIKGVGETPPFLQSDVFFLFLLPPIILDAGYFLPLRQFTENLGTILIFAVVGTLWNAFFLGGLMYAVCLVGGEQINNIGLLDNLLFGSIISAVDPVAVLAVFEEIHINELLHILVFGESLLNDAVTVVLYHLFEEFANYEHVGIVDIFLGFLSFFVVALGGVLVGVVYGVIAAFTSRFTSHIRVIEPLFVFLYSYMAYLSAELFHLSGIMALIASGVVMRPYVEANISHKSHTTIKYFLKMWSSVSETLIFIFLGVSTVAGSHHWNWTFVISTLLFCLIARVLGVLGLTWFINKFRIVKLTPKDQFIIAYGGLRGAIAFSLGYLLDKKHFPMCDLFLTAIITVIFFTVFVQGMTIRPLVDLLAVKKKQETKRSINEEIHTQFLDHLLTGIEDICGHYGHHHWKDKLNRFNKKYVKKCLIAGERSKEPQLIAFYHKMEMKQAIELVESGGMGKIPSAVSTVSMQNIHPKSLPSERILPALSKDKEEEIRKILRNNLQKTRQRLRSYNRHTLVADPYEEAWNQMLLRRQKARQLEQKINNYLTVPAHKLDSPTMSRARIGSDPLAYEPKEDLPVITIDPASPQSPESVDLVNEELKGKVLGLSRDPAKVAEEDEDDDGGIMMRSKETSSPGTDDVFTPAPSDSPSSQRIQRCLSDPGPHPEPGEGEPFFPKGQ
UniProt P26431: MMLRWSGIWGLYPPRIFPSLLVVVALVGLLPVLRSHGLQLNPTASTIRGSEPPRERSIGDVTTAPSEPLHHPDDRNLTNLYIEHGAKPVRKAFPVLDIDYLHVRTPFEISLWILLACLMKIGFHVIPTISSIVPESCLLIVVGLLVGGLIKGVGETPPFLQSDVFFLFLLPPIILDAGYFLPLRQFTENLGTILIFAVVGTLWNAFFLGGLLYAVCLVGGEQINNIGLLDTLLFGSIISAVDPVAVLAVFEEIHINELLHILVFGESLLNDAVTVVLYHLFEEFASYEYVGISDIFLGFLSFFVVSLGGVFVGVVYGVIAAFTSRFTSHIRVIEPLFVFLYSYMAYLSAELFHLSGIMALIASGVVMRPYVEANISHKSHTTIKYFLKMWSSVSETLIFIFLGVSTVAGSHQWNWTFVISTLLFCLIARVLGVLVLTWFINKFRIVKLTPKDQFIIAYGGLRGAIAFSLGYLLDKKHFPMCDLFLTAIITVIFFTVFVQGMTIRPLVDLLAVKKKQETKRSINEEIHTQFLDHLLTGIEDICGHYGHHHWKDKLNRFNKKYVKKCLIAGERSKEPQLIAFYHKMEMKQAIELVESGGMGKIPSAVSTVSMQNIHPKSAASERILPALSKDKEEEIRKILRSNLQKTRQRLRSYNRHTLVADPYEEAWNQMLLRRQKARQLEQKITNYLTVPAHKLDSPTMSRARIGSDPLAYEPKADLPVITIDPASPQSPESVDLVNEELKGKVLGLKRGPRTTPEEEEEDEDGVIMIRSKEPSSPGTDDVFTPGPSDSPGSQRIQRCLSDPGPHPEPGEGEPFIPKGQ

Results are given in words; binding and its absence hold for the method and conditions named. Binding seen in cells or lysates may run through a third protein. Some binding calls cover weakened binding; strength is not graded here.

In assay [1] the target is phosphorylated ezrin (p-ezrin) (rat (endogenous in rat PASMCs)) (UniProt P31977). The experiment in a line: co-IP; anti-p-ezrin immunoprecipitation from lysates of rat PASMCs, hypoxic (4% O2, 24 h) or control; blots for NHE1 and SMA; IgG as control.
Assay [2] has the same target. The experiment in a line: co-IP; anti-p-ezrin immunoprecipitation from lysates of rat PASMCs kept under control conditions; blot for NHE1; IgG as control.
The target is the same in assay [3]. The experiment in a line: co-IP; anti-p-ezrin immunoprecipitation (reverse pull-down) from lysates of rat PASMCs infected with AdNHE1, AdMut or AdGFP; blots for HA and SMA; IgG as control.
Assay [4] addresses HA-tagged wild-type human NHE1 (AdNHE1) (human) (UniProt P19634). The experiment in a line: co-IP; anti-HA immunoprecipitation (HA-tagged NHE1 as bait) from lysates of rat PASMCs infected with AdNHE1 or AdMut; blots for p-ezrin and SMA; IgG as control.

Take “Na+/H+ exchanger isoform 1 (NHE1), native, in rat pulmonary arterial smooth muscle cells (from UniProt P26431 1-820)”: the binding result in assay [1] is “binds”; in assay [2], “binds weakly”. “HA-tagged wild-type human NHE1 (AdNHE1) (from UniProt P19634 1-815)”: the binding result in assay [3] is on record as “binds”. Turning to “phosphorylated ezrin (p-ezrin) (from UniProt P31977 1-586)”, the binding result in assay [4] was “binds”.
